US6825173B2, “Preparation of fagopyritols and uses therefor” (Cornell Research Foundation, Inc., priority 1997, dated 2004)
Entries after “also recorded” stand apart in the source; their conditions may differ.

Assays:
yeast = experiment: Yeast digestion of sucrose and fagopyritols in buckwheat flour extract; conditions: for soluble carbohydrate amount during yeast incubation: Birkett Mills flour extract
[1] = Acid hydrolysis with trifluoroacetic acid, hydrolysis products and mole ratios by GC; conditions: Hydrolysis by 2 N trifluoroacetic acid
[2] = Analysis of chirality of chiro-inositol by chiral column GC; conditions: Hydrolysis by 2 N trifluoroacetic acid; chiral capillary column GC

OC[C@H]1O[C@@](CO)(O[C@H]2O[C@H](CO)[C@@H](O)[C@H](O)[C@H]2O)[C@@H](O)[C@@H]1O [sucrose]
fraction digested by yeast (yeast; 50 mg of yeast, Birkett Mills flour, within the first 2 h): About 97% | soluble carbohydrate amount during yeast incubation (yeast; 50 mg yeast, 0 h): 35.8 mg/25 g flour | soluble carbohydrate amount during yeast incubation (yeast; 50 mg yeast, 2 h): 0.9 mg/25 g flour | soluble carbohydrate amount during yeast incubation (yeast; 100 mg yeast, 0 h): 31.6 mg/25 g flour | fraction digested by yeast (yeast; cake yeast 8500 mg, 22° C., within the first 6 h): About 97% | digestion by / stability to yeast (in words) (yeast; incubation of buckwheat flour extract with yeast): digested within the first 6 h

OCC1O[C@H](OC2C(O)[C@H](O)C(O)C(O)[C@@H]2O)C(O)C(O)[C@H]1O (stereo partly drawn) [Fagopyritol B1, O-α-D-galactopyranosyl-(1→2)-D-chiro-inositol]
Partial hydrolysis products ([1]; Fagopyritol A and B Series): D-galactose; also recorded: D-chiro-inositol | D-chiro-inositol (present in acid hydrolysis products) [2]: yes | L-chiro-inositol (present in acid hydrolysis products) [2]: no

O-α-D-galactopyranosyl-(1→6)-O-α-D-galactopyranosyl-(1→6)-O-α-D-galactopyranosyl-(1→3)-D-chiro-inositol [Fagopyritol A3]
Partial hydrolysis products ([1]; Fagopyritol A and B Series): Fagopyritol A2; also recorded: Fagopyritol A1; also recorded: galactotriose; also recorded: galactobiose; also recorded: D-galactose; also recorded: D-chiro-inositol | D-chiro-inositol (present in acid hydrolysis products) [2]: yes | L-chiro-inositol (present in acid hydrolysis products) [2]: no

OCC1O[C@H](OCC2O[C@@H](O[C@H]3C(O)C(O)[C@H](O)C(O)C3O)C(O)C(O)[C@H]2O)C(O)C(O)[C@H]1O (stereo partly drawn) [Fagopyritol A2, O-α-D-galactopyranosyl-(1→6)-O-α-D-galactopyranosyl-(1→3)-D-chiro-inositol]
Partial hydrolysis products ([1]; Fagopyritol A and B Series): Fagopyritol A1; also recorded: galactobiose; also recorded: D-galactose; also recorded: D-chiro-inositol | D-chiro-inositol (present in acid hydrolysis products) [2]: yes | L-chiro-inositol (present in acid hydrolysis products) [2]: no

OCC1O[C@@H](O[C@H]2C(O)C(O)[C@H](O)C(O)C2O)C(O)C(O)[C@H]1O (stereo partly drawn) [Fagopyritol A1, O-α-D-galactopyranosyl-(1→3)-D-chiro-inositol]
Partial hydrolysis products ([1]; Fagopyritol A and B Series): D-chiro-inositol; also recorded: D-galactose | D-chiro-inositol (present in acid hydrolysis products) [2]: yes | L-chiro-inositol (present in acid hydrolysis products) [2]: no

OC[C@H]1O[C@H](O[C@H]2O[C@H](CO)[C@@H](O)[C@H](O)[C@H]2O)[C@H](O)[C@@H](O)[C@@H]1O [trehalose, O-α-D-glucopyranosyl-(1-1′)-O-α-D-glucoside]
soluble carbohydrate amount during yeast incubation (yeast; 50 mg yeast, 2 h): 2.9 mg/25 g flour | soluble carbohydrate amount during yeast incubation (yeast; 50 mg yeast, 4 h): 2.8 mg/25 g flour | soluble carbohydrate amount during yeast incubation (yeast; 50 mg yeast, 6 h): 2.9 mg/25 g flour | soluble carbohydrate amount during yeast incubation (yeast; 100 mg yeast, 0 h): 1.0 mg/25 g flour | soluble carbohydrate amount during yeast incubation (yeast; 100 mg yeast, 2 h): 5.2 mg/25 g flour | soluble carbohydrate amount during yeast incubation (yeast; 100 mg yeast, 4 h): 4.5 mg/25 g flour | soluble carbohydrate amount during yeast incubation (yeast; 100 mg yeast, 6 h): 4.5 mg/25 g flour

O-α-D-galactopyranosyl-(1→6)-O-α-D-galactopyranosyl-(1→6)-O-α-D-galactopyranosyl-(1→2)-D-chiro-inositol [Fagopyritol B3]
Partial hydrolysis products ([1]; Fagopyritol A and B Series): Fagopyritol B1; also recorded: Fagopyritol B2

OCC1O[C@H](OCC2O[C@H](OC3C(O)[C@H](O)C(O)C(O)[C@@H]3O)C(O)C(O)[C@H]2O)C(O)C(O)[C@H]1O (stereo partly drawn) [Fagopyritol B2, O-α-D-galactopyranosyl-(1→6)-O-α-D-galactopyranosyl-(1→2)-D-chiro-inositol]
Partial hydrolysis products ([1]; Fagopyritol A and B Series): Fagopyritol A1; also recorded: galactobiose; also recorded: D-galactose; also recorded: D-chiro-inositol | D-chiro-inositol (present in acid hydrolysis products) [2]: yes | L-chiro-inositol (present in acid hydrolysis products) [2]: no

OC[C@H]1O[C@H](OC2[C@@H](O)[C@H](O)C(O)[C@H](O)[C@@H]2O)[C@H](O)[C@@H](O)[C@H]1O (stereo partly drawn) [Galactinol (gt1)]
Partial hydrolysis products ([1]; Galactinol Series): myo-inositol; also recorded: D-galactose
